# Laboratory results published in PubChem BioAssay AID2685 (National Center for Advancing Translational Sciences (NCATS), 2010).
# The list shows a part of the results. The main result of the screen is listed elsewhere. These columns were measured beside it and carry no call. Most of these compounds were active or inconclusive in the main read-out, so they are no random draw. Words in brackets tell the shape of the fitted curve; partial curves, single points and poor fits give uncertain potencies.
# Assay: qHTS Assay for Lipid Storage Modulators in Drosophila S3 Cells;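 as to cell number change: cells counted by Cell Tracker Red CMTPX staining in the red channel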
# Conditions: BODIPY lipid droplet fluorescence, 18-24 h; for cell number change: measured here: cell count max response, cells fed with added oleic acid
# Summary of the method: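 Drosophila S3 cells got compounds at several concentrations plus oleic acid (400 uM solution). Laser-scanning cytometry with 488 nm excitation read lipid droplets at 500-530 nm and cells at 575-640 nm. Percent activity was relative to 20 uM Triacsin C.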
# [1] = measured here: cell number channel AC50, cells fed with added oleic acid
# [2] = measured here: lipid fluorescence (Fed channel) AC50, cells fed with added oleic acid
SMILES,AC50 [1],cell number change,AC50 [2]
CCCn1c(N)c(C(=O)CSc2n[nH]c(-c3ccc(C)cc3)n2)c(=O)[nH]c1=O,"0.116 µM [falling, full curve, poor fit]",–,–
CC(Oc1ccccc1)c1ccnn1S(=O)(=O)c1ccccc1 (centres undefined),–,29.2%,"4.61 µM [rising, full curve]"
COc1ccccc1C(=O)Nc1cccc2cccnc12,–,-9.07%,–
CCOc1ccccc1CN1CCNC(=O)C1CC(=O)NCCN1CCOC1=O (centres undefined),–,–,"4.11 µM [falling, partial curve]"
Cc1ccc(S(=O)(=O)N(Cc2ccccc2)c2ccccc2C(=O)N2CCCCC2)cc1,–,–,"29.1 µM [rising, single point]"
Cc1ccc(S(=O)(=O)Oc2ccc(N3C(=O)C4C5CCC(C5)C4C3=O)cc2)cc1 (centres undefined),–,9%,"4.11 µM [rising, single point]"
CSc1nnc(-c2ccccc2)o1,–,-1.17%,–
CCCCOc1cccc(C(=O)NC(=S)Nc2cccnc2)c1,"11.6 µM [rising, single point]",31.4%,–
Cc1cc2ncn(-c3ncccc3[N+](=O)[O-])c2cc1C,–,-0.833%,"0.058 µM [falling, partial curve, poor fit]"
O=C(O)c1ccccc1C(=O)Nc1ccc(Nc2ccc([N+](=O)[O-])cc2[N+](=O)[O-])cc1,–,–,"0.58 µM [falling, single point]"
COc1ccccc1NC(=O)c1cc(S(=O)(=O)N2CCc3ccccc32)ccc1F,–,-10.9%,–
O=C(Nc1nc(-c2ccc(-c3ccccc3)cc2)cs1)c1cnccn1,"20.6 µM [rising, partial curve]",100%,"6.51 µM [rising, single point]"
CC(=O)c1sc(NC(=O)c2cccc(C)c2)nc1C,"0.164 µM [rising, full curve, poor fit]",7.45%,–
COC(=O)c1scc(C)c1N/N=C(\C)c1ccc(F)cc1F,–,11%,"1.16 µM [falling, single point]"
CCOC(=O)c1ccccc1NC(=O)c1ccc(N(C)S(C)(=O)=O)cc1,"7.31 µM [falling, full curve, poor fit]",-32.3%,–
CCOCCCn1cnc2c(c1=O)c1nc3ccccc3nc1n2-c1ccccc1,–,-3.22%,–
CCOC(=O)N1CCN(c2c(-c3ccc(C(C)C)cc3)c(=O)c2=O)CC1,–,4.75%,–
OC(COC(c1ccc(Cl)cc1)c1ccc(Cl)cc1)CN1CCc2ccccc2C1 (centres undefined),"18.4 µM [falling, single point]",-43.4%,"20.6 µM [falling, single point]"

# Quoted at random: 2 records from the list.
SMILES,AC50 [1],cell number change,AC50 [2]
CCOC(=O)c1ccccc1NC(=O)c1ccc(N(C)S(C)(=O)=O)cc1,"7.31 µM [falling, full curve, poor fit]",-32.3%,–
CCOCCCn1cnc2c(c1=O)c1nc3ccccc3nc1n2-c1ccccc1,–,-3.22%,–
